Measured values: paper PMC8274477
These are yes or no findings as the source states them, for the method shown. Binding seen in cells or lysates may run through a third protein. Some entries that bind do so weakly or less than the wild type.

Sequences of proteins named here, by UniProt entry; tags and fusion partners are left off.
UniProt Q8IZP0: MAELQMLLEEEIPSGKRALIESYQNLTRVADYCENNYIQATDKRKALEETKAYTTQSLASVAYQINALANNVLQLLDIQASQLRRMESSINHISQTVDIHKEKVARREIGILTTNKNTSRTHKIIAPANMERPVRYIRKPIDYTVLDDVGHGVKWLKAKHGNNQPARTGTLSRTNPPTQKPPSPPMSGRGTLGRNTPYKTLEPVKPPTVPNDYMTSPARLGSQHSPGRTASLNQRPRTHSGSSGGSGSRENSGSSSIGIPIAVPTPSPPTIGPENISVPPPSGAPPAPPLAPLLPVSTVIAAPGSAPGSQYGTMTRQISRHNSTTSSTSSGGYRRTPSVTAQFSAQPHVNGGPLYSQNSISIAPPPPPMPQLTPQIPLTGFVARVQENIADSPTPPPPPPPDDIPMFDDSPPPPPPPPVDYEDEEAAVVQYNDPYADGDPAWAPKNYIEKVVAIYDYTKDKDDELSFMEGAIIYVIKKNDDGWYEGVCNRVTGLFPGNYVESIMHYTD
UniProt Q9NYB9: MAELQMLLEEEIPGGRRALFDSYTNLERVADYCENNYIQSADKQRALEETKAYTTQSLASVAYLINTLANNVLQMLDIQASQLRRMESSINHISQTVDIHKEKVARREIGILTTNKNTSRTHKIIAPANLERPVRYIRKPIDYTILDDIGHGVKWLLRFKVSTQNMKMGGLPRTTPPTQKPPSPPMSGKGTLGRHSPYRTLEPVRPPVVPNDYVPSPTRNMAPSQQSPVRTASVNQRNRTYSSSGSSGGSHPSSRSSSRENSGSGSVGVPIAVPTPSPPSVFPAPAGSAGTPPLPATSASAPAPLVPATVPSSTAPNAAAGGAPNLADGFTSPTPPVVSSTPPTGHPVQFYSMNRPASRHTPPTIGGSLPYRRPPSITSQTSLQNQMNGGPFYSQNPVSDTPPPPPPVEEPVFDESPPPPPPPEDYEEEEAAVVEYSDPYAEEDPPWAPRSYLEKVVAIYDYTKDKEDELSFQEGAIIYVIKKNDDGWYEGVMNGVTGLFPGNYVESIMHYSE

Target: Flag-HOIP (human) (UniProt Q96EP0)
Assay: co-IP; HEK 293T cells co-transfected with Myc-tagged candidate and Flag-HOIP or Flag-OTULIN; lysis in 50 mM Tris-HCl pH 7.4, 150 mM NaCl, 5 mM EDTA, 1% Triton X-100; protein A/G agarose, 4 C overnight; immunoblot

| binding | Substance |
| --- | --- |
| binds | Myc-ABI1 (from UniProt Q8IZP0 1-508) |
| binds | Myc-ABI2 (from UniProt Q9NYB9 1-513) |
